Results as given in article PMC5829831, “Structural Basis for DNA Recognition by the Two-Component Response Regulator RcsB” (mBio, 2018).

Tests used:
[1] = target: T1, RcsB (Escherichia coli str. K-12 substr. MG1655) (UniProt P0DMC7); assay: SEC-MALS; conditions: data not shown, phosphorylation state not specified; recombinant protein; residues 1-216; protein details: N-terminal 6xHis (pCA24n, ASKA clone)
T1 sequence (looked up): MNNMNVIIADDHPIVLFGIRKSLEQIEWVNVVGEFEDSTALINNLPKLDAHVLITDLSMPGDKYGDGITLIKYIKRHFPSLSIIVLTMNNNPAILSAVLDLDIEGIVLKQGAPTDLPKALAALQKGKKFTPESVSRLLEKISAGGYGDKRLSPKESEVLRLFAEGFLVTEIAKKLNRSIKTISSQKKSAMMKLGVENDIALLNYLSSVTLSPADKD

[2] = target: T1, RcsB (Escherichia coli str. K-12 substr. MG1655); assay: SPR; conditions: data not shown, phosphorylation state not specified; SPR: 10 mM Tris-HCl pH 8.3, 150 mM NaCl, 0.5 mM TCEP, 25 C; recombinant protein; residues 1-216; protein details: N-terminal 6xHis (pCA24n, ASKA clone)

| Sequence | binding result [1] | binding result [2] |
| --- | --- | --- |
| TTTAGGAAAAATCTTAGA (double strand) [DNA18 (flhDC RcsAB box)] | no binding | – |
| TTTAGGAAAAATCTTAGA (double strand) [DNA18, biotinylated] | – | no binding |

Negatives hold for the conditions tested. Tags and fusion partners may be left off the protein sequences shown.
